In this test the test system is HT-29 cells. It is filed as cell-based, human.

Each structure is given as a SMILES string.

Turning to `NCCC[C@H](N)C(=O)O` [ornithine], the HT29 cell death result is reported as “approximately 32%”.

(Values after US20250120417A1, “FEED ADDITIVE COMPOSITIONS AND METHODS FOR USING THE SAME” (INT[…]&H DENMARK APS, priority 2021, published 2025).)
